# Measured values reported in patent US11530199B2, “Analogs for the treatment of disease” (Insilico Medicine IP Limited, priority 2021, dated 2022).
# Structures were worked out from names or drawings and are uncertain.
# Assay: Metabolic stability in human liver microsomes;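 further: NADPH-supplemented incubation in 100 mM potassium phosphate buffer, compound loss sampled at 0, 5, 10, 20, 30 and 60 min by LC-MS/MS, first-order kinetics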
# Format: in vitro ADME
# Conditions: LM Clint; human liver microsomes 0.5 mg protein/mL, test compound 1 μM, 37° C., up to 60 min
compound,measurement,value
CC(C)n1cnc(-c2ccc(C(F)(F)F)cc2)c1-c1nc(C(=O)Nc2ccc(CCC(=O)O)cc2)c[nH]1,Human Liver Microsome (μM/min/mg),+++ (1-10 μM/min/mg as +++)
